This is an account of results in the supplement of paper PMC5355238.

Where a name gives a salt, the structure may show the parent alone. This is one part of the list. Most values lie at the level of the controls, where differences are scatter.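 Reh is a human leukemia cell line; the read-out is the median γH2AX antibody signal in S-phase cells by flow cytometry, with the score counting standard deviations from the median difference of each paired set of plates. Scores above 2.5 were called candidate hits, while scores below -2 mark compounds that lowered the MK1775-induced damage.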

This assay deals with Reh. Kind of assay: Z' of S-phase gammaH2AX difference (drug + MK1775 minus drug alone) (Z-score); higher = stronger synergistic S-phase DNA damage with MK1775. The following applies: MK1775 concentration 400 nM; first compound 10 µM; 4 h.
In the case of `CC1(C)C(=O)N(CCN2CCC(C(=O)c3ccc(F)cc3)CC2)c2ccccc21` [LY-310,762 hydrochloride] + C=CCn1c(=O)c2cnc(Nc3ccc(N4CCN(C)CC4)cc3)nc2n1-c1cccc(C(C)(C)O)n1 [MK1775], the “Z' of S-phase gammaH2AX difference (Z-score)” value was inactive: 0.726. The result for `NC(=O)Nc1sc(-c2ccc(F)cc2)cc1C(N)=O` + C=CCn1c(=O)c2cnc(Nc3ccc(N4CCN(C)CC4)cc3)nc2n1-c1cccc(C(C)(C)O)n1 [MK1775] reads inactive: -0.576; that for `Cc1c(CC(C)(C)C(=O)O)n(Cc2ccc(Cl)cc2)c2ccc(F)cc12` + C=CCn1c(=O)c2cnc(Nc3ccc(N4CCN(C)CC4)cc3)nc2n1-c1cccc(C(C)(C)O)n1 [MK1775], inactive: -0.873; that for `CC(=O)OC(C)C[N+](C)(C)C` (stereo not drawn) [Acetyl-beta-methylcholine chloride] + C=CCn1c(=O)c2cnc(Nc3ccc(N4CCN(C)CC4)cc3)nc2n1-c1cccc(C(C)(C)O)n1 [MK1775], inactive: -0.0134.

`C=CCc1ccccc1OCC(O)CNC(C)C` (configuration not stated) [Alprenolol hydrochloride] + C=CCn1c(=O)c2cnc(Nc3ccc(N4CCN(C)CC4)cc3)nc2n1-c1cccc(C(C)(C)O)n1 [MK1775]: the “Z' of S-phase gammaH2AX difference (Z-score)” value is inactive: 0.19. On to `Cc1nc(N=Nc2ccc(S(=O)(=O)O)cc2S(=O)(=O)O)c(COP(=O)(O)O)c(C=O)c1O` + C=CCn1c(=O)c2cnc(Nc3ccc(N4CCN(C)CC4)cc3)nc2n1-c1cccc(C(C)(C)O)n1 [MK1775], for which the “Z' of S-phase gammaH2AX difference (Z-score)” value is inactive: -0.277. The result for `CCCCC[C@H](CC(=O)NO)C(=O)N[C@H](C(=O)N1CCC[C@H]1CO)C(C)C` [Actinonin] + C=CCn1c(=O)c2cnc(Nc3ccc(N4CCN(C)CC4)cc3)nc2n1-c1cccc(C(C)(C)O)n1 [MK1775] reads inactive: -0.1; that for `CN(C)C(=O)N=NC(=O)N(C)C` [N,N,N',N'-Tetramethylazodicarboxamide] + C=CCn1c(=O)c2cnc(Nc3ccc(N4CCN(C)CC4)cc3)nc2n1-c1cccc(C(C)(C)O)n1 [MK1775], inactive: -0.911.

As to `CN(C)CCC(c1ccccc1)c1ccccn1` (configuration not stated) [Pheniramine maleate] + C=CCn1c(=O)c2cnc(Nc3ccc(N4CCN(C)CC4)cc3)nc2n1-c1cccc(C(C)(C)O)n1 [MK1775], the “Z' of S-phase gammaH2AX difference (Z-score)” value is inactive: 0.403. `CCOc1ccc(Cc2cc([C@@H]3O[C@H](CO)[C@@H](O)[C@H](O)[C@H]3O)ccc2Cl)cc1` [Dapagliflozin] + C=CCn1c(=O)c2cnc(Nc3ccc(N4CCN(C)CC4)cc3)nc2n1-c1cccc(C(C)(C)O)n1 [MK1775]: the “Z' of S-phase gammaH2AX difference (Z-score)” value was inactive: 0.422.

Turning to `COC1=C(OC)C(=O)c2ccccc2C1=O` [2,3-Dimethoxy-1,4-naphthoquinone] + C=CCn1c(=O)c2cnc(Nc3ccc(N4CCN(C)CC4)cc3)nc2n1-c1cccc(C(C)(C)O)n1 [MK1775], the “Z' of S-phase gammaH2AX difference (Z-score)” value is inactive: -0.503. As for `CCn1c(-c2nonc2N)nc2cnc(Oc3cccc(NC(=O)c4ccc(OCCN5CCOCC5)cc4)c3)cc21` + C=CCn1c(=O)c2cnc(Nc3ccc(N4CCN(C)CC4)cc3)nc2n1-c1cccc(C(C)(C)O)n1 [MK1775], the “Z' of S-phase gammaH2AX difference (Z-score)” value is inactive: -0.58.

Consider `Cn1cnc2c(NC3CCCC3)ncnc21` [N6-Cyclopentyl-9-methyladenine] + C=CCn1c(=O)c2cnc(Nc3ccc(N4CCN(C)CC4)cc3)nc2n1-c1cccc(C(C)(C)O)n1 [MK1775], for which the “Z' of S-phase gammaH2AX difference (Z-score)” value is inactive: 0.16. In the case of `CC[C@]1(O)C[C@@H]2CN(CCc3c([nH]c4ccccc34)[C@@](C(=O)OC)(c3cc4c(cc3OC)N(C)[C@H]3[C@@](O)(C(=O)OC)[C@H](OC(C)=O)[C@]5(CC)C=CCN6CC[C@]43[C@@H]65)C2)C1` [Vinblastine sulfate salt] + C=CCn1c(=O)c2cnc(Nc3ccc(N4CCN(C)CC4)cc3)nc2n1-c1cccc(C(C)(C)O)n1 [MK1775] it was inactive: -0.0205; in that of `CC[C@]1(O)C[C@@H]2CN(CCc3c([nH]c4ccccc34)[C@@](C(=O)OC)(c3cc4c(cc3OC)N(C)[C@H]3[C@@](O)(C(=O)OC)[C@H](OC(C)=O)[C@]5(CC)C=CCN6CC[C@]43[C@@H]65)C2)C1` [Vinblastine] + C=CCn1c(=O)c2cnc(Nc3ccc(N4CCN(C)CC4)cc3)nc2n1-c1cccc(C(C)(C)O)n1 [MK1775], inactive: 0.163; in that of `COc1cc2c(cc1OC)CN(CCc1ccc(NC(=O)c3cccc4c(=O)c5cccc(OC)c5[nH]c34)cc1)CC2` [Elacridar] + C=CCn1c(=O)c2cnc(Nc3ccc(N4CCN(C)CC4)cc3)nc2n1-c1cccc(C(C)(C)O)n1 [MK1775], inactive: -0.0584.

As for `CC(=O)NCCc1ccc(O)c(O)c1` [N-Acetyldopamine monohydrate] + C=CCn1c(=O)c2cnc(Nc3ccc(N4CCN(C)CC4)cc3)nc2n1-c1cccc(C(C)(C)O)n1 [MK1775], the “Z' of S-phase gammaH2AX difference (Z-score)” value is inactive: 0.581. On to `Nc1nccc2c1ncn2[C@@H]1O[C@H](CO)[C@@H](O)[C@H]1O` [3-deazaadenosine] + C=CCn1c(=O)c2cnc(Nc3ccc(N4CCN(C)CC4)cc3)nc2n1-c1cccc(C(C)(C)O)n1 [MK1775], for which the “Z' of S-phase gammaH2AX difference (Z-score)” value was inactive: 0.231.

Regarding `N[C@@H](Cc1ccc(F)cc1)C(=O)O` [p-Fluoro-L-phenylalanine] + C=CCn1c(=O)c2cnc(Nc3ccc(N4CCN(C)CC4)cc3)nc2n1-c1cccc(C(C)(C)O)n1 [MK1775], the “Z' of S-phase gammaH2AX difference (Z-score)” value was inactive: -0.163. In the case of `Cn1cnc(N)c2ncnc1-2` [3-Methyladenine] + C=CCn1c(=O)c2cnc(Nc3ccc(N4CCN(C)CC4)cc3)nc2n1-c1cccc(C(C)(C)O)n1 [MK1775] it was inactive: 0.434.

Consider `COc1cc(CC(=O)O)ccc1O` [4-Hydroxy-3-methoxyphenylacetic acid] + C=CCn1c(=O)c2cnc(Nc3ccc(N4CCN(C)CC4)cc3)nc2n1-c1cccc(C(C)(C)O)n1 [MK1775], for which the “Z' of S-phase gammaH2AX difference (Z-score)” value was inactive: -0.649. In the case of `CCCC(C(=O)OCCN(CC)CC)(c1ccccc1)c1ccccc1` [SKF-525A hydrochloride] + C=CCn1c(=O)c2cnc(Nc3ccc(N4CCN(C)CC4)cc3)nc2n1-c1cccc(C(C)(C)O)n1 [MK1775], the “Z' of S-phase gammaH2AX difference (Z-score)” value is inactive: -0.403.
